Data on 40 compounds can be found in the supplement of paper PMC8866396.

± gives the standard deviation of the averaged measurements. The list shows a part of the results. This data set is noisy: repeats of one test often differ as much as different tests do.

For the experiment, the system named is IL-6-GFP PC-9GR. The experiment can be described thus: IL-6-GFP fluorescence relative to DMSO control (fraction of control); higher = more IL-6-GFP expression. As to conditions: compound concentration: 10 uM; treatment time: 48 h. As for the experimental part:
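IL-6-GFP-overexpressing PC-9 and PC-9GR EGFR-mutant lung cancer cells (3000 cells/well, 96-well) were treated for 48 h with each compound of the Selleck L2000 library at 10 uM. IL-6-GFP fluorescence was read on a high-content screening system, and viability by CCK-8 absorbance on a parallel plate set. Each value was normalised as compound well / DMSO control well; two independent replicates.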
Turning to `Cc1nnc(C(=O)NC(C)(C)c2nc(C(=O)NCc3ccc(F)cc3)c(O)c(=O)n2C)o1` [Raltegravir (MK-0518)], the IL-6-GFP fluorescence was found to be 0.829 ± 0.017.
In the case of `CC(Oc1cc(-c2cnn(C3CCNCC3)c2)cnc1N)c1c(Cl)ccc(F)c1Cl` (stereo not given), the IL-6-GFP fluorescence was found to be 1.23 ± 0.17.
The value for `CCOC(=O)c1ccc(C#Cc2ccc3c(c2)C(C)(C)CCS3)nc1` [Tazarotene] was 2.58 ± 1.3; that for `COc1c(-c2ccc3cc(NS(C)(=O)=O)ccc3c2)cc(-n2ccc(=O)[nH]c2=O)cc1C(C)(C)C` [Dasabuvir(ABT-333)] was 0.997 ± 0.1.
`Cl.c1ccc(CN(CC2=NCCN2)c2ccccc2)cc1` [Antazoline HCl] showed an IL-6-GFP fluorescence of 0.746 ± 0.3.
For `CNC(=O)c1cc(Oc2ccc(NC(=O)Nc3ccc(Cl)c(C(F)(F)F)c3)c(F)c2)ccn1.O` [Regorafenib Monohydrate], the IL-6-GFP fluorescence turned out to be 0.94 ± 0.099.
The value for `CCCCC(CC)CN1CN(CC(CC)CCCC)CC(C)(N)C1` (stereo not given) [Hexetidine] was 0.857 ± 0.11.
Compound `O=C(O)c1ccccc1OP(=O)(O)O` [Fosfosal] came in with an IL-6-GFP fluorescence of 0.85 ± 0.096.
Compound `COC(=O)NC(C(=O)N1CCCC1c1ncc(-c2ccc(-c3ccc(-c4cnc(C5CCCN5C(=O)C(NC(=O)OC)C(C)C)[nH]4)cc3)cc2)[nH]1)C(C)C` (stereo not given) had an IL-6-GFP fluorescence of 0.979 ± 0.043.
Compound `C1N2CN3CN1CN(C2)C3` [Methenamine] returned an IL-6-GFP fluorescence of 0.826 ± 0.15.
As to `COc1ccc2c(c1)c(CC(=O)OCC(=O)O)c(C)n2C(=O)c1ccc(Cl)cc1` [Acemetacin], the IL-6-GFP fluorescence is 1.18 ± 0.44.
Consider `C=CC1=C(C)c2cc3nc(cc4[nH]c(cc5[nH]c(cc1n2)c(C)c5C=C)c(C)c4CCC(=O)O)C(CCC(=O)O)=C3C` [Protoporphyrin IX], for which the IL-6-GFP fluorescence came to 1 ± 0.47.
`CC1CC2C(C(O)CC3(C)C2CCC3(O)C(=O)COC(=O)CCC(=O)O)C2(C)C=CC(=O)C=C12` (stereo not given) [Methylprednisolone hemisuccinate] had an IL-6-GFP fluorescence of 0.957 ± 0.11.
Regarding `CN(C)c1nc(N(C)C)nc(N(C)C)n1` [Altretamine], the IL-6-GFP fluorescence is 1.14 ± 0.083.
Consider `CC(CCC(=O)NCCS(=O)(=O)O)C1CCC2C3C(O)CC4CC(O)CCC4(C)C3CCC12C` (stereo not given) [Tauroursodeoxycholic Acid (TUDCA)], for which the IL-6-GFP fluorescence stood at 0.982 ± 0.13.
As for `Cc1c(C(=O)Nc2ccc(N3CC(C)OC(C)C3)nc2)cccc1-c1ccc(OC(F)(F)F)cc1` (stereo not given) [Sonidegib (Erismodegib, NVP-LDE225)], the IL-6-GFP fluorescence amounted to 0.831 ± 0.24.
With `COc1cc2nccc(Oc3ccc(NC(=O)Nc4cc(C)on4)c(Cl)c3)c2cc1OC` [Tivozanib (AV-951)], the IL-6-GFP fluorescence came out at 1.04 ± 0.095.
Compound `CCC1(O)CC2CN(CCc3c([nH]c4ccccc34)C(C(=O)OC)(c3cc4c(cc3OC)N(C)C3C(O)(C(=O)OC)C(OC(C)=O)C5(CC)C=CCN6CCC43C65)C2)C1.O=S(=O)(O)O` (stereo not given) [Vinblastine sulfate] registered an IL-6-GFP fluorescence of 0.651 ± 0.16.
Compound `CCCCCCCCCCCCCCCCCCOP(=O)([O-])OC1CC[N+](C)(C)CC1` [Perifosine (KRX-0401)] displayed an IL-6-GFP fluorescence of 0.702 ± 0.18.
The compound `Cn1c(=O)cc(N2CCCC(N)C2)n(Cc2ccccc2C#N)c1=O` (stereo not given) [Alogliptin(SYK-322)benzoate] showed an IL-6-GFP fluorescence of 0.911 ± 0.13.
As for `CC(C(=O)O)c1cccc(C(=O)c2ccccc2)c1` (stereo not given) [Ketoprofen], the figure is 0.669 ± 0.17; as for `COc1cc2nccc(Oc3ccc(NC(=O)NC4CC4)c(Cl)c3)c2cc1C(N)=O.CS(=O)(=O)O` [lenvatinib Mesylate], 1.1 ± 0.29; as for `CCCCC(=O)OC1(C(=O)CO)C(C)CC2C3CCC4=CC(=O)C=CC4(C)C3(F)C(O)CC21C` (stereo not given) [Betamethasone Valerate], 0.8 ± 0.39.
As for `Cc1cc2c(C(N)=O)cccc2n1-c1nc2c(c(NCc3ccccc3)n1)COCC2`, the figure is 1.12 ± 0.33.
For `O=C(O)CCc1nc(-c2ccccc2)c(-c2ccccc2)o1` [Oxaprozin], the IL-6-GFP fluorescence was 0.67 ± 0.31.
The value for `Clc1ccc(C(c2ccccc2Cl)C(Cl)Cl)cc1` (stereo not given) [Mitotane] was 0.792 ± 0.15; that for `CS(=O)(=O)Nc1cc2occ(NC=O)c(=O)c2cc1Oc1ccccc1` [Iguratimod] was 2.58 ± 0.37.
On to `O=C(O)Cc1ccccc1Nc1c(Cl)cccc1Cl.OCCN1CCCC1` [Diclofenac Epolamine], for which the IL-6-GFP fluorescence turned out to be 0.882 ± 0.03.
In turn, `CNC(=O)c1ccc(N2C(=S)N(c3cnc(C#N)c(C(F)(F)F)c3)C(=O)C23CCC3)cc1F` showed an IL-6-GFP fluorescence of 0.892 ± 0.15.
On to `O=C(CCCc1ccccc1)[O][Na]` [Sodium Phenylbutyrate], for which the IL-6-GFP fluorescence is 0.707 ± 0.24.
`O=C(O)COc1nn(Cc2ccccc2)c2ccccc12` [Bendazac]: the IL-6-GFP fluorescence was found to be 0.807 ± 0.18.
For the compound `CC(C)(C)OC(=O)NC1CCCCC/C=C\C2CC2(C(=O)NS(=O)(=O)C2CC2)NC(=O)C2CC(OC(=O)N3Cc4cccc(F)c4C3)CN2C1=O` (stereo not given) [Danoprevir (ITMN-191)], the IL-6-GFP fluorescence came to 0.891 ± 0.016.
With `C#Cc1cccc(Nc2ncnc3cc(OCCOC)c(OCCOC)cc23)c1.Cl` [Erlotinib HCl (OSI-744)], the IL-6-GFP fluorescence came to 0.833 ± 0.089.
For `CC12C=CC(=O)C=C1CCC1C3CC(O)C(O)(C(=O)CO)C3(C)CC(O)C12F` (stereo not given) [Triamcinolone], the IL-6-GFP fluorescence came out at 0.673 ± 0.29.
The compound `CN1CCC(=C2c3ccccc3CCc3cccnc32)CC1.O=C(O)/C=C\C(=O)O.O=C(O)/C=C\C(=O)O` [Azatadine dimaleate] gave an IL-6-GFP fluorescence of 0.82946 ± 0.00015.
`COc1cc2ncnc(Nc3ccc(F)c(Cl)c3)c2cc1NC(=O)/C=C/CN1CCCCC1` had an IL-6-GFP fluorescence of 0.965 ± 0.092.
Consider `COc1ccc2c(c1)c(CC(=O)O)c(C)n2C(=O)c1ccc(Cl)cc1` [Indomethacin], for which the IL-6-GFP fluorescence came out at 0.939 ± 0.54.
Consider `CC(C)(O)c1ccccc1CCC(SCC1(CC(=O)O)CC1)c1cccc(/C=C/c2ccc3ccc(Cl)cc3n2)c1` (stereo not given) [Montelukast], for which the IL-6-GFP fluorescence was found to be 0.927 ± 0.13.
Compound `Cc1nc(NC(=O)N2CCCC2C(N)=O)sc1-c1ccnc(C(C)(C)C(F)(F)F)c1` (stereo not given) [Alpelisib (BYL719)] yielded an IL-6-GFP fluorescence of 1.28 ± 0.35.
As for `CN(N=O)C(=O)NC1C(O)OC(CO)C(O)C1O` (stereo not given) [Streptozotocin (STZ)], the figure is 1.04 ± 0.052.
